Measurements from PubChem BioAssay AID445 (National Center for Advancing Translational Sciences (NCATS), 2006).
The other results are listed elsewhere or left out. Shown are side measurements of this screen, not its main read-out; they come without a call. Compounds called inactive in the main read-out are mostly missing here. Potencies come from curve fits of mixed quality, noted in brackets.

Assay: IkB Signaling
Conditions: ABC-DLBCL IkBa-CBG/CBR dual luciferase ratio (green luciferase fused to IkBa over red control in OCI-Ly3 lymphoma cells), 4 h
How it was run: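 Curves were fitted separately to fusion (green), unfused (red) and ratio luminescence, then classed by r2, magnitude and activity. Cells: OCI-Ly3, 4 h compound plus doxycycline at 37C; 10 uM MG-132 defined full response.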

[1] = measured here: control luc red channel unless noted
[2] = measured here: IkB-luc green channel
[3] = measured here: control luc red channel

O=c1cc(CN2CCN(S(=O)(=O)c3ccc(Cl)cc3)CC2)nc2sc(-c3ccccc3F)nn12
AC50 [1]: 10 µM [falling, partial curve]

Cc1cc(C)c(N2CCN(S(=O)(=O)N3CCCCCC3)CC2)c(C)c1
AC50 [1]: 20 µM [falling, partial curve]

CCOc1ccc(NS(=O)(=O)c2ccc3[nH]cc(C(=O)NCc4ccco4)c(=O)c3c2)cc1
AC50 [1]: 10 µM [falling, partial curve]

COc1ccc(C(=O)O)cc1Nc1nc2ccc(C)cc2n2cnnc12
AC50 [1]: 2 µM [rising, partial curve, poor fit]

Cc1ccc(C)c(N2CCN(c3nc4ccccc4c4nc(CCn5nc(C)cc5C)nn34)CC2)c1
AC50 [1]: 39.8 µM [falling, single point]

CCN(CC)S(=O)(=O)c1cccc(-c2nnc(SCC(=O)NCCC3=CCCCC3)n2N)c1
AC50 [1]: 20 µM [falling, partial curve]

O=C(Nc1ccccc1)c1ccccc1OCC(O)CN1C(=O)c2ccccc2S1(=O)=O (centres undefined)
AC50 [1]: 31.6 µM [falling, single point]

CC1(C)C(=O)N(CC(=O)Nc2ccc(Cl)cc2)c2ccccc21
AC50 [1]: 12.6 µM [falling, partial curve, poor fit]

CCC(C)NC(=O)c1cc2c(Cl)nc3ccc(C)cc3c2s1 (centres undefined)
AC50 [1]: 0.126 µM [rising, full curve]

O=C(NCc1cccs1)Nc1ccc2c(c1)OCO2
AC50 [1]: 12.6 µM [falling, partial curve]

COc1ccccc1-c1nnc(Nc2nc3c(OC)cccc3s2)o1
AC50 [2]: 1 µM [rising, full curve]
AC50 [3]: 0.0158 µM [falling, full curve]

CCc1nn2c(=O)cc(COC(=O)c3ccccc3NC(=O)COc3ccccc3C)nc2s1
AC50 [1]: 0.794 µM [falling, full curve]

COc1ccc(-c2nn3c(-c4ccc(OC)cc4)nnc3c3ccccc23)cc1
AC50 [1]: 2.51 µM [rising, partial curve]

Cc1ccc2c(c1)cc(C(=O)Nc1ccccc1C)n2C
AC50 [1]: 1 µM [falling, full curve]

c1ccc(OCc2nc3ccccc3[nH]2)cc1
AC50 [1]: 20 µM [falling, single point]

COc1cc(OC)cc(-c2nc3n(n2)C(c2ccccc2F)C(C(=O)Nc2cccnc2)=C(C)N3)c1 (centres undefined)
AC50 [1]: 10 µM [falling, partial curve]

CCc1ccc(C2C(C(=O)Nc3ccccc3)=C(C)Nc3c(C(=O)Nc4ccc(C)cc4)cnn32)cc1 (centres undefined)
AC50 [1]: 3.98 µM [falling, full curve]

CCOC(=O)Cn1c(=O)oc2cc(S(=O)(=O)N3CCN(c4ccc(Cl)cc4)CC3)ccc21
AC50 [1]: 7.94 µM [falling, partial curve]

CCN(CC)c1ccc2c(Cl)c(Br)c(=O)oc2c1
AC50 [2]: 15.8 µM [falling, partial curve]
AC50 [3]: 3.16 µM [falling, full curve]

Cc1cc(C)cc(NC(=O)C2CCCN(c3nnc(C)c4c(C)n(-c5ccccc5)nc34)C2)c1 (centres undefined)
AC50 [1]: 2.51 µM [falling, full curve]

CCOC(=O)C1CCN(C(c2ccccc2)c2c(O)cc(C)n(Cc3ccco3)c2=O)CC1 (centres undefined)
AC50 [1]: 7.94 µM [falling, partial curve]

O=C(Nc1ccc2c(c1)CCC2)C1CCN(c2c3c(nc4ncnn24)CCC3)CC1
AC50 [1]: 25.1 µM [falling, partial curve]

Cc1ccc(-n2c(CCC(=O)O)ccc2-c2cccs2)cc1C
AC50 [1]: 12.6 µM [falling, partial curve]

O=C(CSc1nnc(-c2cccc(F)c2)c(-c2cccc(F)c2)n1)NC1CCCCC1
AC50 [1]: 7.94 µM [falling, partial curve]

O=C(Cn1ncc2c(=O)oc3ccccc3c21)N1CCN(c2ccc(Cl)cc2)CC1
AC50 [1]: 25.1 µM [falling, partial curve]

COc1cc(Cl)c(C)cc1NC(=O)c1cnn(-c2ccc(F)cc2F)c1C1CCN(C(=O)OC(C)(C)C)CC1
AC50 [1]: 0.0316 µM [falling, full curve, poor fit]

CCOC(=O)c1c(NC(=O)COc2ccccc2Br)sc2c1CCCCC2
AC50 [1]: 12.6 µM [falling, partial curve]

CC(C)(C)c1ccc(C(=O)N(Cc2ccc(F)cc2)Cc2ccco2)cc1
AC50 [1]: 20 µM [falling, partial curve, poor fit]

Cc1ccc(-c2nnc(Nc3ccccc3)c3ccccc23)cc1S(=O)(=O)N1CCN(C)CC1
AC50 [1]: 15.8 µM [falling, partial curve]

CCCS(=O)(=O)c1c(S(=O)(=O)CCC)c2c(N)cccn2c1C(=O)c1ccc(F)cc1
AC50 [1]: 20 µM [falling, partial curve]

Cc1ccc(CNC(=O)Cc2ccc(NC(=O)N3CCSc4ncccc43)cc2)cc1
AC50 [1]: 25.1 µM [falling, single point]

CC(C)(C)NC(=O)N1CCC(C(=O)O)CC1
AC50 [1]: 5.01 µM [falling, single point]

CCCNC(=O)c1ccc(Cn2c(=O)c3cccn3c3cccnc32)cc1
AC50 [1]: 1 µM [rising, full curve, poor fit]

Cc1cc2cc(CN(Cc3ccco3)C(=O)C3CCCCC3)c(=O)[nH]c2cc1C
AC50 [1]: 1.26 µM [falling, partial curve]

COCCCNC(=O)CCCn1c(=O)c2cccn2c2ccccc21
AC50 [1]: 12.6 µM [falling, partial curve]

COc1ccccc1CNC(=O)CCC1N=C2c3ccccc3N=C(SCc3ccc(Cl)cc3)N2C1=O (centres undefined)
AC50 [1]: 39.8 µM [falling, single point]

O=C1CCCc2cc(S(=O)(=O)NCC3CCC(C(=O)NCc4ccc(F)cc4)CC3)ccc2N1 (centres undefined)
AC50 [1]: 39.8 µM [falling, single point]

Cc1ccc(N2CCN(S(=O)(=O)c3ccc(Cl)c4ccccc34)CC2)c(C)c1
AC50 [1]: 20 µM [falling, partial curve]

O=C(Nc1cccc(C(F)(F)F)c1)c1cccc(C(=O)Nc2cccc(C(F)(F)F)c2)c1
AC50 [1]: 15.8 µM [rising, partial curve]

CCOC(=O)c1c(C)sc(-c2c(-c3cccc(Cl)c3)[nH]c3c2c(=O)n(C)c(=O)n3C)c1O
AC50 [1]: 1 µM [falling, full curve, poor fit]

CC(=O)Nc1ccc(NC(=O)C2CCN(c3cnccn3)CC2)cc1
AC50 [1]: 39.8 µM [falling, single point]

COc1ccc(CCN2C(=O)c3[nH]nc(-c4ccccc4O)c3C2c2ccccc2)cc1 (centres undefined)
AC50 [1]: 15.8 µM [falling, partial curve]

CCN(CCCNC(=O)c1ccc(Sc2ccc(Cl)cc2)c(NC(C)=O)c1)c1ccccc1
AC50 [1]: 39.8 µM [falling, partial curve]

CCn1cc2nc(SCc3ccc(F)cc3)n(CCc3ccccc3)c(=O)c2n1
AC50 [1]: 39.8 µM [falling, single point]

CCn1c(SCC(=O)c2cc(OC)ccc2OC)nnc1C(C)C
AC50 [1]: 31.6 µM [rising, partial curve] [measured here: IkB-luc green channel]

CCn1c(=O)cc(OCC(=O)Nc2cc(C)ccn2)c2ccccc21
AC50 [1]: 7.94 µM [falling, partial curve]

COc1ccc(OC)c(NC(=O)C2C3CCC(O3)C2C(=O)O)c1 (centres undefined)
AC50 [1]: 25.1 µM [rising, partial curve] [measured here: IkB-luc green channel]

O=S(=O)(c1ccccc1)c1nc(-c2cccc(Cl)c2)oc1N1CCOCC1
AC50 [1]: 25.1 µM [falling, single point]

COC(=O)c1ccc(NC(=O)CSc2nc(=O)[nH]c3c2CCCC3)cc1
AC50 [1]: 3.16 µM [falling, single point]

Cc1noc(C)c1C(=O)OCC(=O)Nc1ccccc1C(=O)NC(C)c1ccccc1 (centres undefined)
AC50 [1]: 31.6 µM [falling, single point]

CN(C)c1ccc(C(CNC(=O)c2ccccc2)N2CCc3ccccc32)cc1 (centres undefined)
AC50 [1]: 10 µM [falling, partial curve]

Cc1onc(-c2ccccc2Cl)c1C(=O)Nc1ccc(-n2nncc2-c2ccco2)cc1
AC50 [1]: 12.6 µM [falling, partial curve]

CCC1=Nc2cc(C(=O)NCCCOC)ccc2Sc2ccc(Br)cc21
AC50 [1]: 794 nM [rising, full curve] [measured here: IkB-luc green channel]

CC(C)CC(=O)Nc1cccc(-c2nc3ccccc3[nH]2)c1
AC50 [1]: 20 µM [falling, partial curve]

Cc1ccc(SCCNC(=O)CN(c2ccccc2)S(=O)(=O)N(C)C)cc1
AC50 [1]: 12.6 µM [falling, single point]

Cc1ccc(Cl)cc1NC(=O)c1cnc(N2CCCCC2)c2ccccc12
AC50 [1]: 39.8 µM [falling, partial curve, poor fit]

N#Cc1ccc(C(=O)Nc2cc3nn(-c4ccccc4)nc3cc2Cl)c(F)c1
AC50 [1]: 0.316 µM [rising, full curve]

O=C(N[C@@H](Cc1ccccc1)C(=O)CCl)OCc1ccccc1
AC50 [2]: 5.01 µM [falling, full curve]
AC50 [3]: 2.51 µM [falling, full curve]

COc1ccc(NC(=O)C(=O)NCCc2csc(-c3ccc(Cl)cc3)n2)cc1OC
AC50 [1]: 2 µM [falling, full curve]

COc1ccccc1NC(=O)C(=O)NCC(c1ccc2c(c1)OCO2)N1CCN(C)CC1 (centres undefined)
AC50 [1]: 3.16 µM [falling, full curve]

CCOc1cc2sc(N3CCC(C(=O)Nc4ccc(C)cc4C)CC3)nc2cc1Br
AC50 [1]: 0.0794 µM [falling, full curve]
